# Assay results as given in PMC7819943, “Rice protein-binding microarrays: a tool to detect cis-acting elements near promoter regions in rice”.
# Protein sequences, listed by entry. Tags and fused reporters are not part of them.
# UniProt Q0JBA9, entry or part of it: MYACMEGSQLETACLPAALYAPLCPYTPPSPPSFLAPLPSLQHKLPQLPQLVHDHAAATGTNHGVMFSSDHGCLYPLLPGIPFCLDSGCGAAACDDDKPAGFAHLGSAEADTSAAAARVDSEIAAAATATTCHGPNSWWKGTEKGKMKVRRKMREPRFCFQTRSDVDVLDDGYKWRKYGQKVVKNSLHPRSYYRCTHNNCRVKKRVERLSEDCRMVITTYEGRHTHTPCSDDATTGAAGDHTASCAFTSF
# This is one part of the list.
# Target: OsWRKY34 (Oryza sativa, UniProt Q0JBA9 1-250)
# Assay: protein-binding microarray (RPBM); PBS, 2% BSA, 51.3 ng/ul salmon testes DNA, 50 uM zinc acetate, 200 nM TF, 25 C, 1 h; high values mean tight binding
# Details: protein: recombinant; tags: N-terminal polyhistidine and DsRed monomer fusion (pET32a); label: CyDye5-dUTP incorporated in the synthesized complementary strand; 3' TTTTT single-stranded linker to array surface; dsDNA, one strand shown
# In short: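 The binding signal is fluorescence intensity per feature, in arbitrary units, read on an Axon 4000B scanner. Polyhistidine- and DsRed-tagged transcription factors (N-terminal fusions) from E. coli BL21-CodonPlus were purified on Ni–NTA and applied at 200 nM for 1 h at 25 °C to a double-stranded, BSA-blocked custom Agilent array in buffer with 50 µM zinc acetate.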
row,Sequence,binding signal
1,TCCTTACTTTACTTTCTTTGTGATCACTTACGGTTTGGCACGGAGTCACCTAGTGCAG,11700 fluorescence intensity (a.u.)
2,TTCCTCTGGATTTGGATTGGAATTGTGTTCTTAGTTTTTTCGGAGTCACCTAGTGCAG,9370 fluorescence intensity (a.u.)
3,CCCACATGTCAGCCTCACTCATCATCGGGTCCCGCATCACCGGAGTCACCTAGTGCAG,8160 fluorescence intensity (a.u.)
4,CCTTGCTGTCATCTTACGTGCCCGTCCTAGCCTCTGACGACGGAGTCACCTAGTGCAG,8380 fluorescence intensity (a.u.)
5,TCCGATGGATCCTTTTGTTGCGTTGTTGTCAACATTGCCACGGAGTCACCTAGTGCAG,8500 fluorescence intensity (a.u.)
6,GCAGCAGCAGCAATCCTCTGATCATTCCTGTACACATACCCGGAGTCACCTAGTGCAG,8280 fluorescence intensity (a.u.)
7,CCGTTATACTCCTTCGGTTTCCGTTTCCGTTTCCGTTTCACGGAGTCACCTAGTGCAG,12900 fluorescence intensity (a.u.)
8,TTTTTTCCTTTTTTTTTCTTTTCTCACGCCCAATATCTCCCGGAGTCACCTAGTGCAG,8040 fluorescence intensity (a.u.)
9,ATAGAGCACTACTACCGCATAAAAGATTTGTACTGGTACACGGAGTCACCTAGTGCAG,8080 fluorescence intensity (a.u.)
10,ACCACCACTCTCTTTTTGGCGCCTAATCGGCTAATCCCCTCGGAGTCACCTAGTGCAG,9880 fluorescence intensity (a.u.)
11,TCATATCTTTTGTTTTCTGCGCGCAAGCTTTCTAAACGGCCGGAGTCACCTAGTGCAG,10100 fluorescence intensity (a.u.)
12,ATTTTTACTCTTTGCTTCACACTACTTTTTTTGGGTTGATCGGAGTCACCTAGTGCAG,12400 fluorescence intensity (a.u.)
13,GTCGGTGTCTCGTGTTTTCTGGCTGGCATACGATATTTCCCGGAGTCACCTAGTGCAG,8470 fluorescence intensity (a.u.)
14,CCTCGAAGCGACCCCGTCTCTCGCGAGTTCTCCCGTCGTCCGGAGTCACCTAGTGCAG,8420 fluorescence intensity (a.u.)
15,GTGGAGCTTTTTTTCTTGGTTGGGTGGGGATGAGTTCTTGCGGAGTCACCTAGTGCAG,16300 fluorescence intensity (a.u.)
16,CGCCCGCGTCAGCCCCGTCGTCGCCGGTCCGTCGCCGCCCCGGAGTCACCTAGTGCAG,8920 fluorescence intensity (a.u.)
17,ATCCCTACCTATGCCGCTCGCCATCGTGATGGCCACCTCTCGGAGTCACCTAGTGCAG,10400 fluorescence intensity (a.u.)
18,GTCACATAGTAATATCTTCTTTCTTGCATTTGTCACTTCCCGGAGTCACCTAGTGCAG,8840 fluorescence intensity (a.u.)
19,TTGACGCAGTTGCATCTGTCTTTCGTGTGGATTACTGGAGCGGAGTCACCTAGTGCAG,9210 fluorescence intensity (a.u.)
20,CCCCACCACCTCATCGATCCGCGCCACCACCCAACCCACCCGGAGTCACCTAGTGCAG,10000 fluorescence intensity (a.u.)
21,TAGTCCCGGTCCTCACCATTGACCAAGGCTGACCTCAAGTCGGAGTCACCTAGTGCAG,9060 fluorescence intensity (a.u.)

row,Sequence,binding signal
1,CAGACATGCCCTTCTCTATCTTCCTTGGCCATCTCTGCCTCGGAGTCACCTAGTGCAG,8800 fluorescence intensity (a.u.)
2,CTAGACTTCTCCGGTATTATATAACATTAACTTCCCAGTTCGGAGTCACCTAGTGCAG,8280 fluorescence intensity (a.u.)
3,ACGTGATAGCGGATCACAAAATTTTAAATGTTTCGTTGACCGGAGTCACCTAGTGCAG,9510 fluorescence intensity (a.u.)
4,GGCCCTTTTTCCGAGCTTCTGGATGAACTGTCAGCATTTTCGGAGTCACCTAGTGCAG,12200 fluorescence intensity (a.u.)
5,GTTGCTTACTACCTGGTATTAGTCATTGTGGGAGTAGTTCCGGAGTCACCTAGTGCAG,8160 fluorescence intensity (a.u.)
6,AAGCAGCAATCCACCACCATCATCGTCATCATAACGATCGCGGAGTCACCTAGTGCAG,8360 fluorescence intensity (a.u.)
7,GTTGAGGGGATGGGATGGGATGGGATGGGACGAACTCACTCGGAGTCACCTAGTGCAG,10200 fluorescence intensity (a.u.)
8,GTCACTTCTCCTTTTTTTTTGGCATGCAATAGACTTCCTTCGGAGTCACCTAGTGCAG,8780 fluorescence intensity (a.u.)
9,TTCAACTGCATTATTGTGTTTTTATTTGGAATTTAGTGCCCGGAGTCACCTAGTGCAG,8380 fluorescence intensity (a.u.)
10,TTCCTCTTCACGTGACTGACATGTGGGCCCCACTCAGCCTCGGAGTCACCTAGTGCAG,8540 fluorescence intensity (a.u.)
11,GCTCCACCTACTCCGCTCCCCTCTGCTCGGCTGCTCCCATCGGAGTCACCTAGTGCAG,8470 fluorescence intensity (a.u.)
12,ACCCTACCGTTATCAACTGCTGCTTTCCTACTCCCTGTGGCGGAGTCACCTAGTGCAG,10900 fluorescence intensity (a.u.)
13,ATTCTGGTTTGATTTCTAGCTAGTGATTGTCACTTCATTCCGGAGTCACCTAGTGCAG,8130 fluorescence intensity (a.u.)
14,TGTTTAGATTGGTGTCATTTTAAATCATTCTATTTTTTTACGGAGTCACCTAGTGCAG,8500 fluorescence intensity (a.u.)
15,TACACCTGATCACTACAAATCTGTAGTCCGTTGCTTTTCTCGGAGTCACCTAGTGCAG,8480 fluorescence intensity (a.u.)
16,CCTGACTTCTTTTTCGTCGCATCTGCTTCAGTAAGTCCAGCGGAGTCACCTAGTGCAG,10900 fluorescence intensity (a.u.)
17,GTGGTTTTGGGAGTTGAGGGATAGGTTATACCCGATTTTACGGAGTCACCTAGTGCAG,9840 fluorescence intensity (a.u.)
18,GAAAAATTGTCCCTTTTTATTTGGGAGGGGAGGGAGGAGGCGGAGTCACCTAGTGCAG,17100 fluorescence intensity (a.u.)
19,CTCCGAGGCCCGTTTATTACCAGCTTTCCTGAGCCCTACTCGGAGTCACCTAGTGCAG,8650 fluorescence intensity (a.u.)
20,GCCTCCGCCTCCACTCCACAACTCCGCCGCCGCCGCAATGCGGAGTCACCTAGTGCAG,9850 fluorescence intensity (a.u.)
21,CTACCGCCACGCCTTCGCCACCATCTCCATCGCACCCTTCCGGAGTCACCTAGTGCAG,8130 fluorescence intensity (a.u.)

row,Sequence,binding signal
1,AAATTGGTAATCCTTATCCTCTCACTCTCTCACTGTTTCGCGGAGTCACCTAGTGCAG,8710 fluorescence intensity (a.u.)
2,GCGGCCCATCACCTCTGACGGCTTCTAATGTATCGGCCCGCGGAGTCACCTAGTGCAG,8690 fluorescence intensity (a.u.)
3,AAACGCTGTGGTGGGTGGTGGTGCGGATGGGGAGGTGTGGCGGAGTCACCTAGTGCAG,14100 fluorescence intensity (a.u.)
4,CTGATTTGCTCTCTCATCTTTATAAATATGAGCACTCGTCCGGAGTCACCTAGTGCAG,8790 fluorescence intensity (a.u.)
5,GGAGCGATGACGTTCTATACCTTCGGCCTTCGTTTGACCGCGGAGTCACCTAGTGCAG,10600 fluorescence intensity (a.u.)
6,CCCAAATCCATCCAGCCCGTCGCCGCCCGCCGCCCGCCGCCGGAGTCACCTAGTGCAG,8860 fluorescence intensity (a.u.)
7,CAACCCCTTACTTCATCACCTACTCATGTCAACACATAGCCGGAGTCACCTAGTGCAG,8850 fluorescence intensity (a.u.)
8,TTGAGTCAGTTTTAATTTTATGTTTTGGTTTTAATCTATACGGAGTCACCTAGTGCAG,9420 fluorescence intensity (a.u.)
9,AAAGGAGCACAAGACCATGCATGCATGCTGCAGATTTTACCGGAGTCACCTAGTGCAG,8100 fluorescence intensity (a.u.)
10,TTTTCCATCACATCAAACTTTTCTACTCACGTAAACTTTTCGGAGTCACCTAGTGCAG,8440 fluorescence intensity (a.u.)
11,TTCACCTTCTACACGGATTGCCTTGTCTATGTTTCCACTGCGGAGTCACCTAGTGCAG,10900 fluorescence intensity (a.u.)
12,TCAGCGGCGAGACTACTTCATCAATCTTGCCCGCCACCGCCGGAGTCACCTAGTGCAG,9300 fluorescence intensity (a.u.)
13,CGGTTGTTGGCGATTTGTCGACTCCCATCGGCTGATTTCACGGAGTCACCTAGTGCAG,9430 fluorescence intensity (a.u.)
14,TTTCGTTTACATATGTTTAGAACATATAGTGCATATGTTTCGGAGTCACCTAGTGCAG,8280 fluorescence intensity (a.u.)
15,TTTCGCTTACACATTTTTCAGACAACTAAGCAGTTTTTTACGGAGTCACCTAGTGCAG,9600 fluorescence intensity (a.u.)
16,AATTACTACAGGCATATGCACCATCAATTTTCATTTACATCGGAGTCACCTAGTGCAG,8180 fluorescence intensity (a.u.)
17,TTATTTTGTTATGAGTTGTTTTATCACTCATAGTACTTTACGGAGTCACCTAGTGCAG,8380 fluorescence intensity (a.u.)
18,CAGTTTGATTCGTTCTTTACTTCGATTCAGTTTGTTTTCGCGGAGTCACCTAGTGCAG,8550 fluorescence intensity (a.u.)
19,TTGGTTTTTTGTGTTATCCTTCTGACAGAATATTTTGGAACGGAGTCACCTAGTGCAG,9360 fluorescence intensity (a.u.)
20,AAAAAACACCCGCTAAATTCCCGCGAAGATTCTTTCCCGGCGGAGTCACCTAGTGCAG,8030 fluorescence intensity (a.u.)
21,AGAATCTGACGTTTTATTTCTGAAACTTTCTTTGCATGCACGGAGTCACCTAGTGCAG,8030 fluorescence intensity (a.u.)

# For reference, some entries already given:
row,Sequence,binding signal
3,AAACGCTGTGGTGGGTGGTGGTGCGGATGGGGAGGTGTGGCGGAGTCACCTAGTGCAG,14100 fluorescence intensity (a.u.)
4,CTGATTTGCTCTCTCATCTTTATAAATATGAGCACTCGTCCGGAGTCACCTAGTGCAG,8790 fluorescence intensity (a.u.)
5,GGAGCGATGACGTTCTATACCTTCGGCCTTCGTTTGACCGCGGAGTCACCTAGTGCAG,10600 fluorescence intensity (a.u.)
6,CCCAAATCCATCCAGCCCGTCGCCGCCCGCCGCCCGCCGCCGGAGTCACCTAGTGCAG,8860 fluorescence intensity (a.u.)
7,CAACCCCTTACTTCATCACCTACTCATGTCAACACATAGCCGGAGTCACCTAGTGCAG,8850 fluorescence intensity (a.u.)
8,TTGAGTCAGTTTTAATTTTATGTTTTGGTTTTAATCTATACGGAGTCACCTAGTGCAG,9420 fluorescence intensity (a.u.)
9,AAAGGAGCACAAGACCATGCATGCATGCTGCAGATTTTACCGGAGTCACCTAGTGCAG,8100 fluorescence intensity (a.u.)
10,TTTTCCATCACATCAAACTTTTCTACTCACGTAAACTTTTCGGAGTCACCTAGTGCAG,8440 fluorescence intensity (a.u.)
11,TTCACCTTCTACACGGATTGCCTTGTCTATGTTTCCACTGCGGAGTCACCTAGTGCAG,10900 fluorescence intensity (a.u.)
12,TCAGCGGCGAGACTACTTCATCAATCTTGCCCGCCACCGCCGGAGTCACCTAGTGCAG,9300 fluorescence intensity (a.u.)
13,CGGTTGTTGGCGATTTGTCGACTCCCATCGGCTGATTTCACGGAGTCACCTAGTGCAG,9430 fluorescence intensity (a.u.)
14,TTTCGTTTACATATGTTTAGAACATATAGTGCATATGTTTCGGAGTCACCTAGTGCAG,8280 fluorescence intensity (a.u.)

# (listing goes on)

row,Sequence,binding signal
1,GCTATTTATCCATTTCCTTTTCCCAATCCCACCTTTCATACGGAGTCACCTAGTGCAG,12000 fluorescence intensity (a.u.)
2,GAGTTAGCCATGGCCTGTCAATTACTGGAACTCTGTTGTACGGAGTCACCTAGTGCAG,8220 fluorescence intensity (a.u.)
3,CCTAAAATAAATTTATTTTTCACCCATCTCACACATACCACGGAGTCACCTAGTGCAG,8080 fluorescence intensity (a.u.)
4,TGAATGAGTACTTCCAGCAAGTGTGTTTCTCGTGTCTGTCCGGAGTCACCTAGTGCAG,9020 fluorescence intensity (a.u.)
5,CTGTGTATCTCCAGCTCTTCCTTTTACATGTTAGTATGTTCGGAGTCACCTAGTGCAG,11600 fluorescence intensity (a.u.)
6,CGCCCATTCTACACCGTCTCCATCCATCTCATCTCGTCGTCGGAGTCACCTAGTGCAG,12100 fluorescence intensity (a.u.)
7,GTGCCTGACGTGGATCCTTGCTGTTCCCGTGTCCCAACCACGGAGTCACCTAGTGCAG,9670 fluorescence intensity (a.u.)
8,TTTTATGTATCTGGGCTGCCTATCTGCAGGAGGGAGGGGACGGAGTCACCTAGTGCAG,12600 fluorescence intensity (a.u.)
9,CTCGCCGTTTTGGTTTTCGTTCGCTGATTCGCTCTCGTCCCGGAGTCACCTAGTGCAG,15500 fluorescence intensity (a.u.)
10,CTACCAGCCGCCGCCGCCGCCGCCGCCGTACGGCGTGAACCGGAGTCACCTAGTGCAG,9100 fluorescence intensity (a.u.)
11,CCTAACCCATCGCCGCGCCGCGCCATCCCCACGCTGCGCCCGGAGTCACCTAGTGCAG,9890 fluorescence intensity (a.u.)
12,GTCACCTTGATTATTTTTTTCAGTTTCAATTTGCTACTTTCGGAGTCACCTAGTGCAG,14300 fluorescence intensity (a.u.)
13,ATGTATGTAACCACCGAATACAATGTTTTATCCTCAATCACGGAGTCACCTAGTGCAG,8510 fluorescence intensity (a.u.)
14,AACTCGCTGCCGTGCCAGACGATTTTTGCCACCTCCATGCCGGAGTCACCTAGTGCAG,8240 fluorescence intensity (a.u.)
15,ATCGCGTTTGAACTTTGACGTGTTAGTTTTATGTTCCCATCGGAGTCACCTAGTGCAG,9930 fluorescence intensity (a.u.)
16,CTCCTCTCTCTCTCAGCTCACCACACCTCGAGTCGCCGCCCGGAGTCACCTAGTGCAG,8180 fluorescence intensity (a.u.)
17,GCAATTGTTCAATATTTTTTTGTGTGTATGTGTTTTTTTTCGGAGTCACCTAGTGCAG,18200 fluorescence intensity (a.u.)
18,ACGTGGTACTCCCTCCGTCCAAGTTTTCGTGCTTAATTTTCGGAGTCACCTAGTGCAG,12800 fluorescence intensity (a.u.)
19,TACCAGCATACGGCCACTTAAGACCACCACCAAACACTTCCGGAGTCACCTAGTGCAG,9190 fluorescence intensity (a.u.)
20,CTCGCAAAGCATCGACGTGCCACCTACCCCATCCGGAACACGGAGTCACCTAGTGCAG,8040 fluorescence intensity (a.u.)
21,ATCATGTCATTTTTTTTTCAAATCTTTTTATGTTTATTTACGGAGTCACCTAGTGCAG,10500 fluorescence intensity (a.u.)
